This experiment has as its target α-Actinin 1 (human (endogenous in PC9)) (UniProt P12814). The experiment can be described thus: cross-linking; in situ formaldehyde cross-linking of intact human PC9 cells (1, 2, 3, 4.5 or 6% FA in PBS, 15 min at 37 °C), lysis, trypsin digest, SCX enrichment, cross-linked peptide pairs identified by LC-MS/MS (12 and 24 Da cross-linker masses).

The chains behind the UniProt entries cited, without tags or fusion partners.
UniProt P12814: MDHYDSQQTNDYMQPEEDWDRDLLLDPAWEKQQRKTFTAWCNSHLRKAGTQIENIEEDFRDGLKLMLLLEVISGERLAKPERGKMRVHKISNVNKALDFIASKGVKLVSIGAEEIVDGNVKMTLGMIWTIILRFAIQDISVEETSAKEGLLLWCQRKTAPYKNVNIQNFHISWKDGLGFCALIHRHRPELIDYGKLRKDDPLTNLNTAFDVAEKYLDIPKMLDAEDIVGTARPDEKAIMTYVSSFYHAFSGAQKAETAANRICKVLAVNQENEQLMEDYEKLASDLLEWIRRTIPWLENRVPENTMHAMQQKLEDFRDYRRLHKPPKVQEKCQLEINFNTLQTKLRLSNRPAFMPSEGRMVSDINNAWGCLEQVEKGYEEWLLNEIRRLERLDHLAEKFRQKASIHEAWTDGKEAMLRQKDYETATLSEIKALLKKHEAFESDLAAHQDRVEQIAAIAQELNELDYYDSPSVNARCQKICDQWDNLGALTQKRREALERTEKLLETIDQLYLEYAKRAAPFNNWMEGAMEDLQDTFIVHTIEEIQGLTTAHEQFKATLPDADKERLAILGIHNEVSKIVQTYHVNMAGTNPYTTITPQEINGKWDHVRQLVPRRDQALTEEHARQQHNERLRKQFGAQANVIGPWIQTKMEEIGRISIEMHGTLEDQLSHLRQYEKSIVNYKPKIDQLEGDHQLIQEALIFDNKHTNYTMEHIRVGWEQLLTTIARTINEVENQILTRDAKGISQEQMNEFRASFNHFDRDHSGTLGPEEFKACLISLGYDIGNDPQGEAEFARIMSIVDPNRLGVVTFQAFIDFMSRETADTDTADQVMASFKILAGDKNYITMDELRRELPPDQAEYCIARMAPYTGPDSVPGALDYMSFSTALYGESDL
UniProt O43707: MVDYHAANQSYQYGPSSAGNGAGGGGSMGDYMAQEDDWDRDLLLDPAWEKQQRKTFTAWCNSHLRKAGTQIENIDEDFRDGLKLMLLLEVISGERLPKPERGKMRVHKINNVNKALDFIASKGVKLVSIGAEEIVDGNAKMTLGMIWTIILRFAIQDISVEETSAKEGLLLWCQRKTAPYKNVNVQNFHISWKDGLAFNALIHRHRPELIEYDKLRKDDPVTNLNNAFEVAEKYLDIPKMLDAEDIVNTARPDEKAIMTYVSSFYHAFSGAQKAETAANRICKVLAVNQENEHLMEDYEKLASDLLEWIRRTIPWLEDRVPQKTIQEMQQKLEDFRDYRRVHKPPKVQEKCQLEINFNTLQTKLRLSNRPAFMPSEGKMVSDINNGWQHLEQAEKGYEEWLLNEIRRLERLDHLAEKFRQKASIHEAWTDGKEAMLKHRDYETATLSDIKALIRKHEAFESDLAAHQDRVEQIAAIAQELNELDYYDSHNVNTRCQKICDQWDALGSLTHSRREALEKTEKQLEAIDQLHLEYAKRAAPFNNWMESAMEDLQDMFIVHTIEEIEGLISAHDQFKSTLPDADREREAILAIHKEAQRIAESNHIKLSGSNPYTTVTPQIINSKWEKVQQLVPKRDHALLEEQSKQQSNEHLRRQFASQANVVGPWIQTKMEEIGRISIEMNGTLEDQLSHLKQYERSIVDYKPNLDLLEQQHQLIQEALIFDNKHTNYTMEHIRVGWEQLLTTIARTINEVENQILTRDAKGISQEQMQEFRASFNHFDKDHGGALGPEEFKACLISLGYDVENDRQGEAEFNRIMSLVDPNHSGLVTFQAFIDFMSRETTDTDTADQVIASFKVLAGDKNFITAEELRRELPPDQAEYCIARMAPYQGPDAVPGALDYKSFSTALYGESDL

These are yes or no findings as the source states them, for the method shown. In cells and extracts the contact can be indirect. Some results given as binding are weak or reduced against the parent protein; the word gives no strength.

α-Actinin 4 (from UniProt O43707 1-911): the binding result is reported as “binds”.

(Values after article PMC7305180.)
